# Measurements taken from PMC7413516, “Antidepressant-like activity and safety profile evaluation of 1H-imidazo[2,1-f]purine-2,4(3H,8H)-dione derivatives as 5-HT1A receptor partial agonists” (PLoS ONE, 2020).
# Values joined by “and” are separate entries in the source; they are usually repeats but may differ in a detail not shown here. Identical values can stand only once. This continues a long series; more values of the same kind are listed elsewhere.
# Columns and labels:
# [1] = Pharmacokinetic study in mice, plasma and brain structures, LC/MS/MS; format: in vivo, Swiss albino mice; settings: 0.625 mg/kg i.p.
# Experimental: Blood samples from the Swiss albino mice were collected at 0 (pre-dose), 5, 15, 30, 60, 120, 240 and 480 min after a compound administration. The blood samples and brain structures were collected under general anesthesia induced by i.p. injection of 50 mg/kg ketamine plus 8 mg/kg xylazine. The blood samples were taken into heparinized tubes, immediately centrifuged at 1000 × g for 10 min, and plasma was collected. The plasma samples and brain structures were immediately frozen at -30°C and -80°C, respectively.
# The plasma and tissue sample pretreatment procedure involved acetonitrile precipitation. A 5 μL aliquot of the IS working solution (100 ng/mL) was added to 50 μL of the collected mouse plasma sample, which was then vortex-mixed for 10 seconds. Thereafter, 200 μL of acetonitrile was added, vortexed during 20 min, and then centrifuged (1000 × g, 10 min). The supernatant (100 μL) was then transferred to insert placed in an autosampler vial, and a 10 μL volume of this was injected onto the HPLC column. Tissue samples were thawed before use, and whole hippocampus, striatum and frontal cortex were weighted and placed in a glass mortar and pestle tissue grinder and homogenized with an appropriate amount of phosphate buffer (pH 7.4) in 1:5 ratio. Afterward, 50 μL of tissue homogenates were transferred to new Eppendorf tubes and spiked with 5 μL of the internal standard working solution. All samples were stored on ice during the preparation process. This was followed by procedures like those described above.
# The LC/ESI-MS/MS experiments were performed on an Applied Biosystems/MDS Sciex (Concord, Ontario, Canada) API 2000 triple quadrupole mass spectrometer equipped with an electrospray (ESI) ionization interface. This instrument was coupled to an Agilent 1100 (Agilent Technologies, Waldbronn, Germany) LC system. Data acquisition and processing were accomplished using Sciex Analyst 1.4.2 data collection and integration software.
# An XBridge C18 (2.1 x 30 mm, 3.5 μm) analytical column (Waters, Milford, Massachusetts, USA) was used for compound separation. The temperatures of the column thermostat and the autosampler were set at 25°C and 10°C, respectively. The mobile phase consisted of a mixture of acetonitrile with addition of 0.1% formic acid (solvent A) and water with addition of 0.1% formic acid (solvent B) and was set at a flow rate of 0.6 mL/min. Starting amount of solvent A is 10%, isocratic elution from 0 to 3 min, and then gradient up to 90% of solvent A, and maintained to 10 min, and then gradient down to 10% of solvent A, and maintained to 15 min.
# The ion source parameters were as follows: ion spray voltage: 5500 V; nebulizer gas (gas 1): 20 psi; turbo gas (gas 2): 25 psi; temperature of the heated nebulizer: 400°C; curtain gas: 40 psi; collision gas: 6 psi. Mass spectra were acquired by SRM with precursor/predominant product ion transitions for each analyte. The mass spectral Q1→Q3 transitions monitored for AZ-853, AZ-861 and for IS (nebivolol), were m/z 453.9→235.1; 504.3→285.1 and 406.2→151.1, respectively. The peak widths of precursor and product ions were set to 0.7 full width half-height. Quantification was done via peak area ratio.
# Pharmacokinetic parameters were calculated by a non-compartmental approach from the average concentration values, using Phoenix WinNonlin software (Certara, Princeton, NJ 08540 USA). First order elimination rate constant (λz) was calculated by linear regression of time versus log concentration. Next, the area under the mean serum and tissue concentration versus time curve (AUC0→t) was estimated using the log-linear trapezoidal rule (1), where Ci is the plasma concentration measured at t1.
# AUC0→t=∑i=1n((Ci+Ci+1)/2)∙(ti+1−ti). (1)
# Area under the first-moment curve (AUMC0→t) was estimated by calculation of the total area under the first-moment curve using the Eq (2), where Ci is the plasma concentration measured at t1. AUMC0→t=∑i=1n((ti∙Ci+ti+1∙Ci+1)/2)∙(ti+1−ti). […]
# [2] = Body weight measurement in the 17-day experiment; format: in vivo, Swiss albino mice; settings: mouse, 0.625 mg/kg
# Experimental: The Swiss albino mice were used in the experiment. AZ-853 and AZ-861 were injected once daily for 16 consecutive days. On the 1st and 15th day the administration of the compounds, 18-h spontaneous animal activity was registered (see below). FST, as described earlier, was performed on the 14th day just before the next treatment. To ensure that the effects observed in FST are not the result of increased motility of animals, on the 13th day, just before the next administration, the locomotor activity was measured as described earlier, from 2 to 6 min after test start, i.e. in the period identical to the duration of FST. Blood and organ collection was performed on the 17th day at 24 h after the last dose and fasting.
# The body weight was measured daily immediately prior to administration of the drugs. On the 17th day, the blood was collected from the Swiss albino mice sacrificed by decapitation 20 min after i.p. administration of heparin (2500 units/mouse) and then centrifuged at 600 × g (15 min, 4°C) to separate plasma. The liver, heart, and kidney were also collected and weighed.
smiles,measurement,setting,value
"Cn1c(=O)c2c(nc3n(CCCCN4CCN(c5ccccc5F)CC4)ccn23)n(C)c1=O [AZ-853, 8-(4-(4-(2-fluorophenyl)piperazin-1-yl)butyl)-1,3-dimethyl-1H-imidazo[2,1-f]purine-2,4(3H,8H)-dione]","Concentration, frontal cortex (individual animals)",[1]; 5 min,287.52 ng/mL and 304.17 ng/mL and 320.45 ng/mL and 333.56 ng/mL and 324.78 ng/mL
same,"Concentration, hippocampus (individual animals)",[1]; 5 min,183.51 ng/mL and 176.53 ng/mL and 161.56 ng/mL and 181.31 ng/mL and 236.67 ng/mL
same,"Concentration, plasma (individual animals)",[1]; 5 min,18.11 ng/mL and 19.41 ng/mL and 25.22 ng/mL and 26.33 ng/mL and 24.15 ng/mL
same,"Concentration, striatum (individual animals)",[1]; 5 min,408.32 ng/mL and 297.74 ng/mL and 298.61 ng/mL and 409.37 ng/mL and 315.43 ng/mL
same,"Concentration, frontal cortex (individual animals)",[1]; 240 min,27.82 ng/mL
same,"Concentration, hippocampus (individual animals)",[1]; 240 min,9.98 ng/mL
same,"Concentration, striatum (individual animals)",[1]; 240 min,6.18 ng/mL
same,"Concentration, frontal cortex (individual animals)",[1]; 480 min,17.61 ng/mL and 16.44 ng/mL and 11.88 ng/mL and 10.46 ng/mL and 12.77 ng/mL
same,"Concentration, hippocampus (individual animals)",[1]; 480 min,2.02 ng/mL and 3.09 ng/mL and 3.05 ng/mL and 1.66 ng/mL and 1.14 ng/mL and 1.45 ng/mL
same,"Concentration, plasma (individual animals)",[1]; 480 min,0.39 ng/mL and 0.21 ng/mL and 0.38 ng/mL and 0.24 ng/mL and 0.27 ng/mL
same,"Concentration, striatum (individual animals)",[1]; 480 min,1.54 ng/mL and 1.66 ng/mL and 0.78 ng/mL and 0.89 ng/mL and 1.67 ng/mL and 1.85 ng/mL
same,body weight,"[2]; day 11, individual mouse",24.2 g (2×) and 24.4 g and 25.8 g and 24.0 g and 24.9 g and 23.7 g and 23.3 g and 25.4 g and 26.9 g
same,body weight,"[2]; day 12, individual mouse",24.9 g and 25.2 g and 26.7 g and 24.7 g and 26.4 g and 25.1 g and 24.5 g and 24.4 g and 26.1 g and 27.2 g
same,body weight,"[2]; day 13, individual mouse",24.7 g and 25.7 g and 26.3 g and 24.5 g and 26.4 g and 24.2 g and 24.8 g (2×) and 26.9 g and 27.1 g
same,body weight,"[2]; day 14, individual mouse",25.6 g and 26.5 g and 26.0 g (2×) and 25.0 g and 26.4 g and 24.3 g and 26.2 g and 25.5 g and 27.6 g
same,body weight,"[2]; day 15, individual mouse",25.1 g and 27.2 g and 27.0 g and 26.0 g and 26.9 g and 24.9 g and 26.3 g and 25.5 g and 25.6 g and 26.4 g
